# Results published in the supplement of paper PMC8728848.
# The list shows a part of the results.
# B1: Pbx2CASH domain (Cryptococcus neoformans) (protein)
# chain: GIPGPNRLYRLSGPIIFTAADQEIATYGYPTGSERAVLRVEGRNTATAIQGDCRRCARVSVKNLVVDGNRKKLGRMRDFQLATGLVVLGGNEGQSIQNSWIKNPRGFTAIHIREGDKLQCSGARVEKNEIGPVGEEYDPEKDGDDPEMSPLGRPLADGVSIACRDSFIRDNTFRDNTDAAIVVYCSPGTLIHA
# Experiments:
# Test in all cases: glycan array binding signal (z-score within array); higher = stronger binding
# Conditions in all cases: glycan notation: IUPAC condensed, linker removed
# [1] = target: Gal(b1-4)GlcNAc(b1-3)Gal(b1-4)[Fuc(a1-3)]GlcNAc(b1-3)Gal(b1-4)[Fuc(a1-3)]GlcNAc
# Method in brief: (§1)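 Glycan array binding is given as a within-array Z-score, which can be read as non-binding when negative. The arrays, 3228 of them, came from the Consortium for Functional Glycomics database and were retained only where the protein sequence was available. Z-scores were averaged across arrays of the same protein sequence at different concentrations or buffers and across linkers.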
# [2] = target: Gal(b1-4)GlcNAc(b1-3)GalNAc
# Method in brief: as §1
# [3] = target: Gal(b1-4)GlcNAc(b1-3)[Fuc(a1-3)GlcNAc(b1-6)]Gal(b1-4)Glc
# Method in brief: as §1
# [4] = target: Gal(b1-4)GlcNAc(b1-3)[Gal(b1-4)GlcNAc(b1-6)]Gal(b1-4)GlcNAc
# Method in brief: as §1
# [5] = target: Gal(b1-4)GlcNAc(b1-3)[GlcNAc(b1-6)]Gal(b1-4)GlcNAc
# Method in brief: as §1
# [6] = target: Gal(b1-4)GlcNAc(b1-6)Gal(b1-4)GlcNAc
# Method in brief: as §1
# [7] = target: Gal(b1-4)GlcNAc(b1-6)GalNAc
# Method in brief: as §1
# [8] = target: Gal(b1-4)GlcNAc(b1-6)[Gal(b1-3)]GalNAc
# Method in brief: as §1
# [9] = target: Gal(b1-4)GlcNAc(b1-6)[Gal(b1-4)GlcNAc(b1-3)]GalNAc
# Method in brief: as §1
# [10] = target: Gal(b1-4)GlcNAc6P
# Method in brief: as §1
# [11] = target: Gal(b1-6)Gal
# Method in brief: as §1
# [12] = target: Gal3S(b1-3)GalNAc
# Method in brief: as §1
# [13] = target: Gal3S(b1-3)GlcNAc
# Method in brief: as §1
# [14] = target: Gal3S(b1-3)[Fuc(a1-4)]GlcNAc
# Method in brief: as §1
# [15] = target: Gal3S(b1-4)Glc
# Method in brief: as §1
# [16] = target: Gal3S(b1-4)Glc6S
# Method in brief: as §1
# [17] = target: Gal3S(b1-4)GlcNAc
# Method in brief: as §1
# [18] = target: Gal3S(b1-4)[Fuc(a1-3)]Glc6S
# Method in brief: as §1
# [19] = target: Gal3S(b1-4)[Fuc(a1-3)]GlcNAc
# Method in brief: as §1
# [20] = target: Gal3S(b1-4)[Fuc(a1-3)]GlcNAc6S
# Method in brief: as §1
# [21] = target: Gal3S4S(b1-4)GlcNAc
# Method in brief: as §1
# [22] = target: Gal3S6S(b1-4)GlcNAc
# Method in brief: as §1
# [23] = target: Gal3S6S(b1-4)GlcNAc6S
# Method in brief: as §1
# [24] = target: Gal4S(b1-4)GlcNAc
# Method in brief: as §1
# [25] = target: Gal4S6S(b1-4)GlcNAc
# Method in brief: as §1
# [26] = target: Gal6P(b1-4)GlcNAc
# Method in brief: as §1
# [27] = target: Gal6S(b1-3)GlcNAc
# Method in brief: as §1
# [28] = target: Gal6S(b1-3)GlcNAc6S
# Method in brief: as §1
# [29] = target: Gal6S(b1-4)Glc
# Method in brief: as §1
# [30] = target: Gal6S(b1-4)Glc6S
# Method in brief: as §1
# [31] = target: Gal6S(b1-4)GlcNAc
# Method in brief: as §1
# [32] = target: Gal6S(b1-4)GlcNAc6S
# Method in brief: as §1
# [33] = target: GalNAc(a1-3)Gal
# Method in brief: as §1
# [34] = target: GalNAc(a1-3)GalNAc
# Method in brief: as §1
# [35] = target: GalNAc(a1-3)GalNAc(a1-3)Gal(a1-4)Gal(b1-4)GlcNAc
# Method in brief: as §1
# [36] = target: GalNAc(a1-3)GalNAc(b1-3)Gal(a1-4)Gal(b1-4)Glc
# Method in brief: as §1
# [37] = target: GalNAc(b1-3)Gal
# Method in brief: as §1
# [38] = target: GalNAc(b1-3)Gal(a1-4)Gal(b1-4)GlcNAc
# Method in brief: as §1
# [39] = target: GalNAc(b1-3)Gal(a1-4)Gal(b1-4)GlcNAc(b1-3)Gal(b1-4)Glc
# Method in brief: as §1
# [40] = target: GalNAc(b1-3)Gal(a1-6)Gal(b1-4)Glc
# Method in brief: as §1
# [41] = target: GalNAc(b1-3)GalNAc
# Method in brief: as §1
# [42] = target: GalNAc(b1-3)GlcNAc
# Method in brief: as §1
# [43] = target: GalNAc(b1-4)Gal(b1-4)Glc
# Method in brief: as §1
# [44] = target: GalNAc(b1-4)GlcNAc
# Method in brief: as §1
# [45] = target: GalNAc(b1-4)GlcNAc(b1-2)Man
# Method in brief: as §1
binder,measurement,setting,value
B1,glycan array binding signal (z-score),[1],-0.056
same,glycan array binding signal (z-score),[2],-0.57
same,glycan array binding signal (z-score),[3],-0.704
same,glycan array binding signal (z-score),[4],-0.282
same,glycan array binding signal (z-score),[5],-0.507
same,glycan array binding signal (z-score),[6],-0.67
same,glycan array binding signal (z-score),[7],1.19
same,glycan array binding signal (z-score),[8],-0.606
same,glycan array binding signal (z-score),[9],0.304
same,glycan array binding signal (z-score),[10],-0.136
same,glycan array binding signal (z-score),[11],0.238
same,glycan array binding signal (z-score),[12],-0.637
same,glycan array binding signal (z-score),[13],-0.72
same,glycan array binding signal (z-score),[14],-0.056
same,glycan array binding signal (z-score),[15],0.134
same,glycan array binding signal (z-score),[16],0.057
same,glycan array binding signal (z-score),[17],-0.389
same,glycan array binding signal (z-score),[18],1.16
same,glycan array binding signal (z-score),[19],-0.272
same,glycan array binding signal (z-score),[20],-0.289
same,glycan array binding signal (z-score),[21],-0.502
same,glycan array binding signal (z-score),[22],-0.382
same,glycan array binding signal (z-score),[23],1.44
same,glycan array binding signal (z-score),[24],-0.599
same,glycan array binding signal (z-score),[25],-0.521
same,glycan array binding signal (z-score),[26],0.549
same,glycan array binding signal (z-score),[27],-0.043
same,glycan array binding signal (z-score),[28],0.572
same,glycan array binding signal (z-score),[29],-0.273
same,glycan array binding signal (z-score),[30],3.18
same,glycan array binding signal (z-score),[31],-0.006
same,glycan array binding signal (z-score),[32],0.11
same,glycan array binding signal (z-score),[33],-0.153
same,glycan array binding signal (z-score),[34],-0.991
same,glycan array binding signal (z-score),[35],-0.392
same,glycan array binding signal (z-score),[36],-0.232
same,glycan array binding signal (z-score),[37],0.143
same,glycan array binding signal (z-score),[38],-0.2
same,glycan array binding signal (z-score),[39],-0.602
same,glycan array binding signal (z-score),[40],-0.686
same,glycan array binding signal (z-score),[41],0.027
same,glycan array binding signal (z-score),[42],-0.437
same,glycan array binding signal (z-score),[43],0.407
same,glycan array binding signal (z-score),[44],-0.463
same,glycan array binding signal (z-score),[45],-0.167

# Three successive records from above:
binder,measurement,setting,value
B1,glycan array binding signal (z-score),[15],0.134
same,glycan array binding signal (z-score),[16],0.057
same,glycan array binding signal (z-score),[17],-0.389
